From publication PMC9787943, “Calcium-Dependent Interplay of Lithium and Tricyclic Antidepressants, Amitriptyline and Desipramine, on N-methyl-D-aspartate Receptors” (International Journal of Molecular Sciences, 2022)

Tested on: T1, native di- and triheteromeric NMDARs composed of GluN1, GluN2A, and GluN2B subunits
T1 construct: gene Grin1; native receptors in primary cultured cortical neurons (from fetal brains of 17-day pregnant rats, 10-14 days in culture); mixture of di- and triheteromers, heterotetramers with two GluN1 (known biology)
Assay: whole-cell patch clamp of cultured neurons, NMDA-elicited currents
Type: cell-based, Rattus norvegicus
Settings: Na+ solution without Li+, 2 mM Ca2+, 100 μM NMDA + 30 μM glycine, -70 mV, pH 7.2-7.4, 22-25 °C; mode: open-channel block, Ca2+-independent
From the text: whole-cell patch clamp of cultured neurons, NMDA-elicited currents on native di- and triheteromeric NMDARs composed of GluN1, GluN2A, and GluN2B subunits

IC50: 72 ± 12 µM
SMILES: CN(C)CCCN1c2ccccc2CCc2ccc(Cl)cc21 [Clomipramine]
